The exact form of at least one protein or probe is not confirmed. Where a protein sequence is shown, tags need not be part of it.
Assays:
[1] = target: T1, rNTD (N-terminal domain of phage phi11 CI repressor) (Staphylococcus aureus phage phi11) (UniProt Q8SDX2); assay: EMSA; conditions: 42°C; EMSA with ~0.1 nM 32P-DNA, 20 min on ice (0°C) unless 42°C; RNAP assay and protein storage in buffer C (10 mM Tris-HCl pH 8.0, 200 mM NaCl, 1 mM EDTA, 5% glycerol); recombinant protein; protein details: C-terminal His6 (8 additional residues); label: 32P
T1 sequence (looked up, limits assumed): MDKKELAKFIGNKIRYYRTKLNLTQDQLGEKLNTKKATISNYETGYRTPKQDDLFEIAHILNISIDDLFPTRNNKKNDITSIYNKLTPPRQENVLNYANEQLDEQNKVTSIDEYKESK

[2] = target: T2, rCI (phage phi11 CI lysogenic repressor) (Staphylococcus aureus phage phi11) (UniProt Q8SDX2); assay: EMSA; conditions: 42°C, Kd stated as very similar to that of rNTD; EMSA with ~0.1 nM 32P-DNA, 20 min on ice (0°C) unless 42°C; RNAP assay and protein storage in buffer C (10 mM Tris-HCl pH 8.0, 200 mM NaCl, 1 mM EDTA, 5% glycerol); recombinant protein; protein details: C-terminal His tag; label: 32P
T2 sequence (looked up, limits assumed): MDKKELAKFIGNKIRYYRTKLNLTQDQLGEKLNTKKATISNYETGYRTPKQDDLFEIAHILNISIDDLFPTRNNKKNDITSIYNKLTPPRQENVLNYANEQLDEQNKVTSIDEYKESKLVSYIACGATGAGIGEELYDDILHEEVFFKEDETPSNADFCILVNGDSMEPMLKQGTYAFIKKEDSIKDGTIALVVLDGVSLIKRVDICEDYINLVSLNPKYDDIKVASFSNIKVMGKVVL

Q: Which Kd [1] does the source give for “GACTCAAGTACACGTATCGTGTATAGTAGGTTTA / AAACCTACTATACACGATACGTGTACTTGAGTCA [O1]” here?
A: 0.3 µM

Q: And the Kd [2]?
A: 0.3 µM

Source: publication PMC3991615, “The N-Terminal Domain of the Repressor of Staphylococcus aureus Phage Φ11 Possesses an Unusual Dimerization Ability and DNA Binding Affinity”
